For four molecules, binding results are on record in paper PMC7267773, “CCDC61/VFL3 Is a Paralog of SAS6 and Promotes Ciliary Functions” (Structure(London, England:1993), 2020).

Assay [1] deals with hCCDC61^(1-457; F128E/D129A), GFP-tagged and 3xHA-tagged copies (human) (UniProt Q9Y6R9). Kind of assay: pull-down; GFP pulldown: GFP- and 3xHA-tagged constructs co-transfected in HEK293T; lysate in 50 mM Tris pH 7.4, 200 mM NaCl, 0.2% NP-40, 10% glycerol; GFP-nanobody resin, 4°C 90 min; western blot. Background: Immunoblotting shows a protein as a band on a membrane.
The target of assay [2] is hCCDC61^(1-457; F128E/D129A/5E), GFP-tagged and 3xHA-tagged copies (human) (UniProt Q9Y6R9). The description is as above.
For assay [3], the target named is hCCDC61^(1-143; F128E/D129A) (human) (UniProt Q9Y6R9). Nature of the assay: AUC; velocity sedimentation, approximately 480 μM (7.9 mg/ml), 20 mM Tris-HCl pH 8.0, 150 mM NaCl, 2 mM DTT, 50,000 rpm, 4°C; c(s) distribution; both purified.
Assay [4] deals with T1, ^15N-labeled head domain of human SAS6^1-143 (human) (UniProt Q6UVJ0).
T1 sequence (chain, 15N-labelled): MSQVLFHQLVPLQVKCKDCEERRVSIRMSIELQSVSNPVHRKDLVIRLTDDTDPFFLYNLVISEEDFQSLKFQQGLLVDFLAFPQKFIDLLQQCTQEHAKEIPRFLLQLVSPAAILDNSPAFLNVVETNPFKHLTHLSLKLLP
Nature of the assay: condition: 48 μM of hCCDC61^1-143 with 56 μM of ^15N-labelled hSAS6^1-143; NMR titration; chemical shift perturbation, 2D 1H,15N BEST-Trosy of 56 μM 15N-labelled hSAS6^1-143 alone and with 48 μM hCCDC61^1-143; 20 mM Tris pH8.0, 150 mM NaCl, 2 mM DTT, 20°C; both purified.

These are yes or no findings as the source states them, for the method shown. For some of these results: Binding seen in cells or lysates may run through a third protein. Some binding calls cover weakened binding; strength is not graded here. For some of these results: Where a sequence is shown, tags or fusion partners need not be part of it.

B1: hCCDC61^(1-457; F128E/D129A), GFP-tagged and 3xHA-tagged copies (domain or fragment, UniProt Q9Y6R9 1-457)
chain: MDQPAGLQVDYVFRGVEHAVRVMVSGQVLELEVEDRMTADQWRGEFDAGFIEDLTHKTGNFKQFNIFCHMLESALTQSSESVTLDLLTYTDLESLRNRKMGGRPGSLAPRSAQLNSKRYLILIYSVEEARIHYPLPLPYQGKPDPVVLQGIIRSLKEELGRLQGLDGQNTRDTRENEIWHLREQVSRLASEKRELEAQLGRSREEALAGRAARQEAEALRGLVRGLELELRQERGLGHRVAGRRGQDCRRLAKELEEAKASERSLRARLKTLTSELALYKRGRRTPPVQPPPTREDRASSSRERSASRGRGAARSSSRESGRGSRGRGRPARPSPSPTGGRALRFDPTAFVKAKERKQREIQMKQQQRNRLGSGGSGDGPSVSWSRQTQPPAALTGRGDAPNRSRNRSSSVDSFRSRCSSASSCSDLEDFSESLSRGGHRRRGKPPSPTPWSGSNMK
B1: the binding entry in assay [1] is recorded as “binds”.

B2: hCCDC61^(1-457; F128E/D129A/5E), GFP-tagged and 3xHA-tagged copies (domain or fragment, UniProt Q9Y6R9 1-457)
chain: MDQPAGLQVDYVFRGVEHAVRVMVSGQVLELEVEDRMTADQWRGEFDAGFIEDLTHKTGNFKQFNIFCHMLESALTQSSESVTLDLLTYTDLESLRNRKMGGRPGSLAPRSAQLNSKRYLILIYSVEEARIHYPLPLPYQGKPDPVVLQGIIRSLKEELGRLQGLDGQNTRDTRENEIWHLREQVSRLASEKRELEAQLGRSREEALAGRAARQEAEALRGLVRGLELELRQERGLGHRVAGRRGQDCRRLAKELEEAEASEESLEAELETLTSELALYKRGRRTPPVQPPPTREDRASSSRERSASRGRGAARSSSRESGRGSRGRGRPARPSPSPTGGRALRFDPTAFVKAKERKQREIQMKQQQRNRLGSGGSGDGPSVSWSRQTQPPAALTGRGDAPNRSRNRSSSVDSFRSRCSSASSCSDLEDFSESLSRGGHRRRGKPPSPTPWSGSNMK
For the molecule B2, the binding entry in assay [2] is “binds”.

B3: hCCDC61^(1-143; F128E/D129A) (domain or fragment, UniProt Q9Y6R9 1-143)
chain: GSMDQPAGLQVDYVFRGVEHAVRVMVSGQVLELEVEDRMTADQWRGEFDAGFIEDLTHKTGNFKQFNIFCHMLESALTQSSESVTLDLLTYTDLESLRNRKMGGRPGSLAPRSAQLNSKRYLILIYSVEEARIHYPLPLPYQGKP
For B3, in assay [3], the binding result is given as “no binding (tested: approximately 480 μM (7.9 mg/ml))”.

B4: N-terminal head domain of human CCDC61 (hCCDC61^1-143) (domain or fragment)
chain: GSMDQPAGLQVDYVFRGVEHAVRVMVSGQVLELEVEDRMTADQWRGEFDAGFIEDLTHKTGNFKQFNIFCHMLESALTQSSESVTLDLLTYTDLESLRNRKMGGRPGSLAPRSAQLNSKRYLILIYSVEFDRIHYPLPLPYQGKP
notes: extra residues Gly-Ser left at the N-terminus after the His-GST tag was cleaved with tev protease; gene codon optimized for E. coli and synthesized; The crystal (PDB 6HXT) was of the seleno-methionine-substituted protein; also called hCCDC61 head domain; source: E. coli BL21(DE3), purified (GSTrap, tev cleavage, HisTrap flow through, HiTrap Q, PD-10); not shown: His tag, N-terminal, cleaved; GST, …
Take B4: the binding result in assay [4] is listed as “no binding”.
